Reference: US20210106679A1 (UNIVERSITÄT WIEN, priority 2017, published 2021)

What was measured:
peptide synthesis = conditions: whole synthesis
[1] = TEM imaging of peptides and peptide-silica mixtures; type: physicochemical; conditions: absence of silicic acid
Method: Peptide and peptide-silica mixtures suspended in 50 mM phosphate buffer were applied onto carbon coated copper grid and subsequently viewed with Philips CM200 electron microscope operated at 200 kV.

RRIIL[εLys]RRIL
isolated yield (peptide synthesis; on 13 μmol peptidyl resin): 25% yield | isolated mass (peptide synthesis; scale 13 μmol of peptidyl resin): 17 mg

RRILKRRIL
isolated yield (peptide synthesis; on 19 μmol peptidyl resin): 38% yield | isolated mass (peptide synthesis; scale 19 μmol of peptidyl resin): 23 mg

RRILKRRIL [Peptide 1]
structures of the peptide in phosphate buffer (TEM) [1]: did not show any noticeable structures

RRIL[εLys]RRIL
isolated yield (peptide synthesis; on 11 μmol peptidyl resin): 23% yield | isolated mass (peptide synthesis; scale 11 μmol of peptidyl resin): 14 mg

rriil(εK)RRIL [Peptide 8]
structures of the peptide in phosphate buffer (TEM) [1]: micrometre long rods or narrow sheets

rril(εK)RRIIL
isolated yield (peptide synthesis; on 7 μmol peptidyl resin): 13% yield | isolated mass (peptide synthesis; scale 7 μmol of peptidyl resin): 9 mg

For some of these results: Where a sequence shows no end group, the ends are not given. *1 amine or outer side, *2 acyl side, *3 side chain or, on linkers, in order; H or OH if unused. Where no end group is shown, it is not given here. [ ]: non-standard residue; d: D form. εLys = N[C@@H](CCCCN[*:1])C(=O)[*:2]
